Read-outs that look alike come from different tables or passages of the source. Results are given in words; binding and its absence hold for the method and conditions named. Some results given as binding are weak or reduced against the parent protein; the word gives no strength. Tags and fused reporters may be left off the sequences shown.

By UniProt entry, the sequences of proteins in these tests, tags left out. Where a name states a change or a piece, a line headed by the entry shows the natural chain unless it says otherwise.
UniProt Q01939: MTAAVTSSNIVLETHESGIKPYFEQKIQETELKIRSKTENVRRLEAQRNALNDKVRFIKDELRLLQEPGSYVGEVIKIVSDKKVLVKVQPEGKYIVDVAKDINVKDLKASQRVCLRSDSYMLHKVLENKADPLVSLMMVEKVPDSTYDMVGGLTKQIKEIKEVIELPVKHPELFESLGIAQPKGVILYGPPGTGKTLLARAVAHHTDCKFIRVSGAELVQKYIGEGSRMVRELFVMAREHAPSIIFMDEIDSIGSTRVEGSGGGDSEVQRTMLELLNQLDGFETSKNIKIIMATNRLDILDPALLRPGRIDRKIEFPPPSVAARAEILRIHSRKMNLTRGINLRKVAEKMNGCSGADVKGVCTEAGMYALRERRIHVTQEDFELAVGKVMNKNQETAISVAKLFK

Test in all cases: tandem affinity purification; base components (Rpt1-6, Rpn1, Rpn2, Rpn13) and chaperones (Nas2, Nas6, Hsm3, Rpn14) co-expressed in E. coli BL21(DE3); lysate on His-Select spin column (His6-Rpt3), eluted with 150 mM imidazole, then anti-FLAG M2 beads (FLAG-Rpt1), eluted with 3x FLAG peptide; TAP buffer 25 mM HEPES pH 7.6, 100 mM NaCl, 100 mM KCl, 10% glycerol, 10 mM MgCl2, 0.5 mM EDTA, 1 mM ATP; eluate read by western blot (anti-FLAG, anti-His) and Oriole stain
In general terms: A western blot detects proteins with antibodies after separation by electrophoresis.

Assay [1] concerns the target T1, FLAG-Rpt1 (Saccharomyces cerevisiae) (UniProt P33299).
T1 sequence: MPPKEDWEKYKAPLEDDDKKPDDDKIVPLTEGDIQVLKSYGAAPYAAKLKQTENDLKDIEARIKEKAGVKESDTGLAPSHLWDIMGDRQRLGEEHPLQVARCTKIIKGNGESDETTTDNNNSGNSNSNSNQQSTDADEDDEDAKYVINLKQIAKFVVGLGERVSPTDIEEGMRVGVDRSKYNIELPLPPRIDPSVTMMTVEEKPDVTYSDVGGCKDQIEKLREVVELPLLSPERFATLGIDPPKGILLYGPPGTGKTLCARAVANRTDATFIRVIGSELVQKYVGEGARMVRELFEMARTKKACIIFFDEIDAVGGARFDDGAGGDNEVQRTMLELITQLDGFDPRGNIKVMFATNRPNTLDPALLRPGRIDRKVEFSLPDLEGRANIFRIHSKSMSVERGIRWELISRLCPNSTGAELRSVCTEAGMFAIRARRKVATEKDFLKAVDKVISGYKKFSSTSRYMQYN

For assay [2], the target named is T2, His6-Rpt3 (Saccharomyces cerevisiae) (UniProt P33298).
T2 sequence: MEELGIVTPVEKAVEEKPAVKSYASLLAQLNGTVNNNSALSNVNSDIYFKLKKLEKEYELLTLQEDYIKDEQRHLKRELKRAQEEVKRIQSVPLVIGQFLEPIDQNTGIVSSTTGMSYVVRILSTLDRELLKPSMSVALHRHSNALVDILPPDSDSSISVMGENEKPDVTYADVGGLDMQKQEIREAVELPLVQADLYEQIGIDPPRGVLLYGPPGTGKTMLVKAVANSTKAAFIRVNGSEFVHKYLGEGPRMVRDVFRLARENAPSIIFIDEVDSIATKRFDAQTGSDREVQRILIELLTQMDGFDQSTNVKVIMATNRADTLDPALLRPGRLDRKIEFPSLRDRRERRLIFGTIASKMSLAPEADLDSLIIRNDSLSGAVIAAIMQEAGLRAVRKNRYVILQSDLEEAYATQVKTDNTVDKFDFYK

Assay [3] addresses T1, FLAG-Rpt1 (Saccharomyces cerevisiae). The source holds these as a separate data set.

For “Rpt6Δ50 (from UniProt Q01939 51-405) (domain or fragment)”, the binding entry in assay [1] is listed as “binds weakly”.

For the molecule Rpt6 (from UniProt Q01939 1-405), the binding result in assay [1] is reported as “binds”.

B1: Rpt5Δ40 (domain or fragment, UniProt P33297 41-434)
chain: IRIFRSELQRLSHENNVMLEKIKDNKEKIKNNRQLPYLVANVVEVMDMNEIEDKENSESTTQGGNVNLDNTAVGKAAVVKTSSRQTVFLPMVGLVDPDKLKPNDLVGVNKDSYLILDTLPSEFDSRVKAMEVDEKPTETYSDVGGLDKQIEELVEAIVLPMKRADKFKDMGIRAPKGALMYGPPGTGKTLLARACAAQTNATFLKLAAPQLVQMYIGEGAKLVRDAFALAKEKAPTIIFIDELDAIGTKRFDSEKSGDREVQRTMLELLNQLDGFSSDDRVKVLAATNRVDVLDPALLRSGRLDRKIEFPLPSEDSRAQILQIHSRKMTTDDDINWQELARSTDEFNGAQLKAVTVEAGMIALRNGQSSVKHEDFVEGISEVQARKSKSVSFYA
On to B1, for which the binding entry in assay [2] is on record as “binds”.

B2: Rpn2 (protein, UniProt P32565 1-945)
chain: MSLTTAAPLLALLRENQDSVKTYALESINNVVDQLWSEISNELPDIEALYDDDTFSDREMAALIASKVYYNLGEYESAVKYALAAKDRFDIDEKSQFVETIVSKSIEMYVQEASKQYTKDEQFYTKDIIDPKLTSIFERMIEKCLKASELKLALGIALEGYRLDIIESALKSKLDQDSTSENVKIINYLLTLAITTVTNSKFRSSILRKSFDFLMNMPNCDYLTLNKVVVNLNDAGLALQLFKKLKEENDEGLSAQIAFDLVSSASQQLLEILVTELTAQGYDPALLNILSGLPTCDYYNTFLLNNKNIDIGLLNKSKSSLDGKFSLFHTAVSVANGFMHAGTTDNSFIKANLPWLGKAQNWAKFTATASLGVIHKGNLLEGKKVMAPYLPGSRASSRFIKGGSLYGLGLIYAGFGRDTTDYLKNIIVENSGTSGDEDVDVLLHGASLGIGLAAMGSANIEVYEALKEVLYNDSATSGEAAALGMGLCMLGTGKPEAIHDMFTYSQETQHGNITRGLAVGLALINYGRQELADDLITKMLASDESLLRYGGAFTIALAYAGTGNNSAVKRLLHVAVSDSNDDVRRAAVIALGFVLLRDYTTVPRIVQLLSKSHNAHVRCGTAFALGIACAGKGLQSAIDVLDPLTKDPVDFVRQAAMIALSMILIQQTEKLNPQVADINKNFLSVITNKHQEGLAKFGACVAQGIMNAGGRNVTIQLENADTGTLDTKSVVGLVMFSQFWYWFPLAHFLSLSFTPTTVIGIRGSDQAIPKFQMNCYAKEDAFSYPRMYEEASGKEVEKVATAVLSTTARAKARAKKTKKEKGPNEEEKKKEHEEKEKERETNKKGIKETKENDEEFYKNKYSSKPYKVDNMTRILPQQSRYISFIKDDRFVPVRKFKGNNGVVVLRDREPKEPVALIETVRQMKDVNAPLPTPFKVDDNVDFPSA
With B2, the binding entry in assay [3] and in assay [2] was “binds” throughout.

B3: Rpt4Δ65 (domain or fragment, UniProt P53549 66-437)
chain: EHRRYDDQLKQRRQNIRDLEKLYDKTENDIKALQSIGQLIGEVMKELSEEKYIVKASSGPRYIVGVRNSVDRSKLKKGVRVTLDITTLTIMRILPRETDPLVYNMTSFEQGEITFDGIGGLTEQIRELREVIELPLKNPEIFQRVGIKPPKGVLLYGPPGTGKTLLAKAVAATIGANFIFSPASGIVDKYIGESARIIREMFAYAKEHEPCIIFMDEVDAIGGRRFSEGTSADREIQRTLMELLTQMDGFDNLGQTKIIMATNRPDTLDPALLRPGRLDRKVEIPLPNEAGRLEIFKIHTAKVKKTGEFDFEAAVKMSDGFNGADIRNCATEAGFFAIRDDRDHINPDDLMKAVRKVAEVKKLEGTIEYQKL
As to B3, the binding entry in assay [3] was “binds”.

(Values after publication PMC4514846.)
